{"source": "PubChem BioAssay AID1508597 (Cure First, 2020)", "screen": "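Survival screen with siRNA in ovarian cancer cells derived from patients, with or without rucaparib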 (primary screen)", "cell system": "human ovarian carcinoma lines grown from tumours: OCI-P5x (papillary serous) and OCI-C5x (clear cell)", "reagents": "siRNA pool against human genes, 1.25 pmol siRNA per well", "timing": "72 h or 96 h, depending on the cell culture", "treatment": "rucaparib 20 µM (about IC30) or vehicle, present until read-out", "measured": "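ATP luminescence measured at 72 or 96 h according to the culture, then normalised and expressed as percent viability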", "scale": "viability, normalised: higher = more viable cells remaining", "call rule": "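a well counts as a hit if its normalised viability is under 80 percent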", "calls": "active = viability under 80%; inactive = viability 80% or more", "note": "This is one part, drawn at random, of about 2,100 deposited reagents. 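Calls flag viability under 80% in either arm, not effects specific to rucaparib; the reference for percent is not stated.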 The record does not give: the 100% reference."}
{"Target gene": "G2E3 (G2/M-phase specific E3 ubiquitin protein ligase)", "rucaparib or vehicle": "Rucaparib", "cell line": "OCI-C5x (clear cell)", "technical replicate": "1", "viability, normalised (%)": 48.5, "activity call": "active"}
{"Target gene": "G2E3 (G2/M-phase specific E3 ubiquitin protein ligase)", "rucaparib or vehicle": "Rucaparib", "cell line": "OCI-C5x (clear cell)", "technical replicate": "2", "viability, normalised (%)": 35.4, "activity call": "active"}
{"Target gene": "G2E3 (G2/M-phase specific E3 ubiquitin protein ligase)", "rucaparib or vehicle": "Rucaparib", "cell line": "OCI-C5x (clear cell)", "technical replicate": "3", "viability, normalised (%)": 57.8, "activity call": "active"}
{"Target gene": "G2E3 (G2/M-phase specific E3 ubiquitin protein ligase)", "rucaparib or vehicle": "Rucaparib", "cell line": "OCI-P5x (serous)", "technical replicate": "1", "viability, normalised (%)": 47.5, "activity call": "active"}
{"Target gene": "G2E3 (G2/M-phase specific E3 ubiquitin protein ligase)", "rucaparib or vehicle": "Rucaparib", "cell line": "OCI-P5x (serous)", "technical replicate": "2", "viability, normalised (%)": 58.6, "activity call": "active"}
{"Target gene": "G2E3 (G2/M-phase specific E3 ubiquitin protein ligase)", "rucaparib or vehicle": "Rucaparib", "cell line": "OCI-P5x (serous)", "technical replicate": "3", "viability, normalised (%)": 57.9, "activity call": "active"}
{"Target gene": "G2E3 (G2/M-phase specific E3 ubiquitin protein ligase)", "rucaparib or vehicle": "Vehicle", "cell line": "OCI-C5x (clear cell)", "technical replicate": "1", "viability, normalised (%)": 43, "activity call": "active"}
{"Target gene": "G2E3 (G2/M-phase specific E3 ubiquitin protein ligase)", "rucaparib or vehicle": "Vehicle", "cell line": "OCI-C5x (clear cell)", "technical replicate": "2", "viability, normalised (%)": 66.2, "activity call": "active"}
{"Target gene": "G2E3 (G2/M-phase specific E3 ubiquitin protein ligase)", "rucaparib or vehicle": "Vehicle", "cell line": "OCI-C5x (clear cell)", "technical replicate": "3", "viability, normalised (%)": 50.4, "activity call": "active"}
{"Target gene": "G2E3 (G2/M-phase specific E3 ubiquitin protein ligase)", "rucaparib or vehicle": "Vehicle", "cell line": "OCI-P5x (serous)", "technical replicate": "1", "viability, normalised (%)": 71.9, "activity call": "active"}
{"Target gene": "G2E3 (G2/M-phase specific E3 ubiquitin protein ligase)", "rucaparib or vehicle": "Vehicle", "cell line": "OCI-P5x (serous)", "technical replicate": "2", "viability, normalised (%)": 61.1, "activity call": "active"}
{"Target gene": "G2E3 (G2/M-phase specific E3 ubiquitin protein ligase)", "rucaparib or vehicle": "Vehicle", "cell line": "OCI-P5x (serous)", "technical replicate": "3", "viability, normalised (%)": 84.2, "activity call": "inactive"}
